According to article PMC9098485:
These are yes or no findings as the source states them, for the method shown. Binding seen in cells or lysates may run through a third protein. Some binding calls cover weakened binding; strength is not graded here.

Chains of the proteins cited; added tags and fusions are not shown. Residues count along the entry.
UniProt O14672, residues 214-748: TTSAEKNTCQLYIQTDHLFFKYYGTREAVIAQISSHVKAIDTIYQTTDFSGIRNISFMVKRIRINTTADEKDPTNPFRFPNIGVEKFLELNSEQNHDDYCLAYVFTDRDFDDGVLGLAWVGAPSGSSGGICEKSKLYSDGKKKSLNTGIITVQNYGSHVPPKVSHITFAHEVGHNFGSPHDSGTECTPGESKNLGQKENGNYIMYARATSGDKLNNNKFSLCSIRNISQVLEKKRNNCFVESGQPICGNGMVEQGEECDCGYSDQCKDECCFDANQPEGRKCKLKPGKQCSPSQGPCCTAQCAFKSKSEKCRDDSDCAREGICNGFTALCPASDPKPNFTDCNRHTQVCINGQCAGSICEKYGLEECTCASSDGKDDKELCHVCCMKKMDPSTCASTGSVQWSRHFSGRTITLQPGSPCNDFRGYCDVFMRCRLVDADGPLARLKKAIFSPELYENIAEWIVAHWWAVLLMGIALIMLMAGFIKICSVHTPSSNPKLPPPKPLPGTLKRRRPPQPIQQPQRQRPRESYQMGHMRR

B1: EphA3 (receptor, UniProt P29320 21-983)
chain: ELIPQPSNEVNLLDSKTIQGELGWISYPSHGWEEISGVDEHYTPIRTYQVCNVMDHSQNNWLRTNWVPRNSAQKIYVELKFTLRDCNSIPLVLGTCKETFNLYYMESDDDHGVKFREHQFTKIDTIAADESFTQMDLGDRILKLNTEIREVGPVNKKGFYLAFQDVGACVALVSVRVYFKKCPFTVKNLAMFPDTVPMDSQSLVEVRGSCVNNSKEEDPPRMYCSTEGEWLVPIGKCSCNAGYEERGFMCQACRPGFYKALDGNMKCAKCPPHSSTQEDGSMNCRCENNYFRADKDPPSMACTRPPSSPRNVISNINETSVILDWSWPLDTGGRKDVTFNIICKKCGWNIKQCEPCSPNVRFLPRQFGLTNTTVTVTDLLAHTNYTFEIDAVNGVSELSSPPRQFAAVSITTNQAAPSPVLTIKKDRTSRNSISLSWQEPEHPNGIILDYEVKYYEKQEQETSYTILRARGTNVTISSLKPDTIYVFQIRARTAAGYGTNSRKFEFETSPDSFSISGESSQVVMIAISAAVAIILLTVVIYVLIGRFCGYKSKHGADEKRLHFGNGHLKLPGLRTYVDPHTYEDPTQAVHEFAKELDATNISIDKVVGAGEFGEVCSGRLKLPSKKEISVAIKTLKVGYTEKQRRDFLGEASIMGQFDHPNIIRLEGVVTKSKPVMIVTEYMENGSLDSFLRKHDAQFTVIQLVGMLRGIASGMKYLSDMGYVHRDLAARNILINSNLVCKVSDFGLSRVLEDDPEAAYTTRGGKIPIRWTSPEAIAYRKFTSASDVWSYGIVLWEVMSYGERPYWEMSNQDVIKAVDEGYRLPPPMDCPAALYQLMLDCWQKDRNNRPKFEQIVSILDKLIRNPGSLKIITSAAARPSNLLLDQSNVDITTFRTTGDWLNGVWTAHCKEIFTGVEYSSCDTIAKISTDDMKKVGVTVVGPQKKIISSIKALETQSKNGPVPV
B2: ephrin-A5 (ligand, UniProt P52803 21-203)
chain: QDPGSKAVADRYAVYWNSSNPRFQRGDYHIDVCINDYLDVFCPHYEDSVPEDKTERYVLYMVNFDGYSACDHTSKGFKRWECNRPHSPNGPLKFSEKFQLFTPFSLGFEFRPGREYFYISSAIPDNGRRSCLKLKVFVRPTNSCMKTIGVHDRVFDVNDKVENSLEPADDTVHESAEPSRGEN

Molecular target: A disintegrin and metalloprotease-10 (ADAM10) (human (endogenous in DU145 and 22Rv-1)) (UniProt O14672)
Test: co-IP; protein lysate of DU145 and 22Rv-1 cells; 1.5 ug antibody (ADAM10, EphA3 or ephrin-A5), 4 °C for 12 h, protein A/G agarose magnetic beads; Western blotting; homologous Ig as negative control

Binder	binding
B1	binds
B2	binds
